Values from PubChem BioAssay AID1053208 (Peter MacCallum Cancer Centre, 2014)
In all, the deposit lists about 17,000 reagents; shown is an unselected part. Of all reagents, 788 (4.7%) are marked active. 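Calls rest on z-score classes alone; an extra cut-off of viability at most 70% of control was not applied to them.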 Reagents against one gene are numbered here. Further read-outs or replicates are left out here.

- Assay: 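Genes whose silencing cuts survival of bone tumour cells only with doxorubicin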 (primary screen)
- Cells: mouse osteosarcoma cells, early-passage culture from an engineered mouse model of fibroblastic bone tumour
- Reagent: siRNA pool against mouse genes, 40 nM
- Time to read-out: about 120 h (48 h before drug, then 72 h with drug)
- Treatment: doxorubicin 100 nM for 72 h, roughly 30-40% inhibitory dose
- Measured: 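Viability read as ATP luminescence after 72 h of 100 nM doxorubicin or none, duplicate wells averaged, scaled to non-targeting siRNA, then expressed as robust z-scores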
- Reading the numbers: viability z-score with doxorubicin: higher = more viable cells under doxorubicin; viability z-score without drug: higher = more viable cells with knock-down alone
- Rule for the call: 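a pool counts as active when its viability z-score with doxorubicin is -2 or below and its z-score without drug lies between -2 and 2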

no.	Target gene	reagent no.	combined z-score class	viability z-score with doxorubicin	viability z-score without drug	Outcome
1	Ceacam12	1	no change with or without drug	0.34	1.18	inactive
2	Prr5	1	no change with or without drug	-1.8	-0.84	inactive
3	Mlxipl	1	no change with or without drug	0.45	0	inactive
4	Kdf1	1	no change with or without drug	0.67	1.18	inactive
5	Abcb9	1	no change with or without drug	0	-0.51	inactive
6	Abi1	1	no change with or without drug	0.67	-0.34	inactive
7	Zc3h6	1	no change with or without drug	1.01	-0.17	inactive
8	Zc3h6	2	no change with or without drug	1.12	-0.17	inactive
9	Cenpq	1	no change with or without drug	0.45	0.51	inactive
10	Mllt10	1	no change with or without drug	-1.8	-0.51	inactive
11	Eefsec	1	no change with or without drug	-0.9	-1.52	inactive
12	Prps2	1	no change with or without drug	1.01	-1.52	inactive
13	Casq2	1	high cell count with doxorubicin only	2.25	1.35	inactive
14	Or6c202	1	no change with or without drug	0.56	1.35	inactive
15	AU014748	1	no change with or without drug	-0.11	0.17	inactive
16	Setx	1	no change with or without drug	0.67	-0.84	inactive
17	P2ry1	1	no change with or without drug	0.34	-0.84	inactive
18	Ccr8	1	no change with or without drug	-1.69	-1.18	inactive
19	Usp31	1	no change with or without drug	0.34	0.34	inactive
20	Copz2	1	no change with or without drug	-0.67	-0.34	inactive
21	Cd28	1	no change with or without drug	0.9	-0.17	inactive
22	Epn2	1	no change with or without drug	-0.22	0.17	inactive
23	Pex5	1	no change with or without drug	0	1.52	inactive
24	Slc26a4	1	no change with or without drug	-0.11	-1.18	inactive
25	Hcrtr1	1	no change with or without drug	-0.9	-0.84	inactive
26	U2af1l4	1	no change with or without drug	0.9	-1.18	inactive
27	Slit3	1	high cell count without drug only	1.35	2.36	inactive
28	Clec4a2	1	no change with or without drug	-1.8	-1.69	inactive

Continued; the last 5 above are carried over.
no.	Target gene	reagent no.	combined z-score class	viability z-score with doxorubicin	viability z-score without drug	Outcome
24	Slc26a4	1	no change with or without drug	-0.11	-1.18	inactive
25	Hcrtr1	1	no change with or without drug	-0.9	-0.84	inactive
26	U2af1l4	1	no change with or without drug	0.9	-1.18	inactive
27	Slit3	1	high cell count without drug only	1.35	2.36	inactive
28	Clec4a2	1	no change with or without drug	-1.8	-1.69	inactive
29	4930503E14Rik	1	low cell count with doxorubicin only	-2.25	-1.01	active
30	Pcolce2	1	no change with or without drug	0.22	0.84	inactive
31	Farsb	1	no change with or without drug	-1.69	-0.84	inactive
32	Lenep	1	low cell count with doxorubicin only	-2.36	-1.85	active
33	Rabgap1l	1	no change with or without drug	-1.01	-1.18	inactive
34	Gstm2	1	no change with or without drug	0.45	-0.17	inactive
35	Lce1g	1	no change with or without drug	-1.8	-1.18	inactive
36	Edn1	1	no change with or without drug	0.56	0.17	inactive
37	Zfp455	1	no change with or without drug	0.11	0.51	inactive
38	Klhdc8a	1	no change with or without drug	0	0	inactive
39	Slc14a1	1	no change with or without drug	1.01	-0.51	inactive
40	Or2c1	1	no change with or without drug	0	-1.01	inactive
41	Ern2	1	no change with or without drug	0.9	1.18	inactive
42	Cd8a	1	no change with or without drug	0.34	-0.84	inactive
43	Sh3bgrl	1	no change with or without drug	0	-1.35	inactive
44	Cited4	1	no change with or without drug	-0.22	0.17	inactive
45	Fbln1	1	no change with or without drug	0.11	1.35	inactive
46	Arl6ip1	1	no change with or without drug	1.35	0.17	inactive
47	Psmb5	1	low cell count with and without drug	-6.52	-7.25	inactive
48	Chdh	1	no change with or without drug	-1.8	-0.67	inactive
49	Trpc1	1	no change with or without drug	-0.11	-0.17	inactive
50	Endog	1	no change with or without drug	1.01	0.84	inactive
